This note sets out measurements from article PMC7819943, “Rice protein-binding microarrays: a tool to detect cis-acting elements near promoter regions in rice”.

This is one part of the list.

This assay addresses T1, OsSMF1 (Oryza sativa, UniProt Q6ZLB0 1-436).
T1 sequence: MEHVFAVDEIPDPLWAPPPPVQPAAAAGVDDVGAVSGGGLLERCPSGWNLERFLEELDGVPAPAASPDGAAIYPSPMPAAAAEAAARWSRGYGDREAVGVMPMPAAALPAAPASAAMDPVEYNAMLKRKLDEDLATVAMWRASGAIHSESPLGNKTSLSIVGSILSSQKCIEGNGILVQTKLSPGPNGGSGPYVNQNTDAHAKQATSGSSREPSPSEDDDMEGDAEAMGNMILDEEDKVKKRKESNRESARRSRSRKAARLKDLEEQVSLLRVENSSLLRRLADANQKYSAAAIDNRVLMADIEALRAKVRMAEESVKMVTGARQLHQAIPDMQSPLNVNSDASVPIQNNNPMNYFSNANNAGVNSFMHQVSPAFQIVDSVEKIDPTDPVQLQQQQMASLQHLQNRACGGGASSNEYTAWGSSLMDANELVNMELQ
Kind of assay: protein-binding microarray (RPBM); PBS, 2% BSA, 51.3 ng/ul salmon testes DNA, 50 uM zinc acetate, 200 nM TF, 25 C, 1 h; high values mean tight binding. Particulars: protein: recombinant; tags: N-terminal polyhistidine and DsRed monomer fusion (pET32a); chain copies: 2; label: CyDye5-dUTP incorporated in the synthesized complementary strand; 3' TTTTT single-stranded linker to array surface; dsDNA, one strand shown. A digest of the protocol: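 Transcription factors were each fused at the N-terminus to a polyhistidine tag plus DsRed and expressed in E. coli BL21-CodonPlus before Ni–NTA purification. Binding to a double-stranded custom Agilent array was carried out with 200 nM protein at 25 °C for 1 h in PBS, 2% BSA, salmon testes DNA and 50 µM zinc acetate. The binding signal is per-feature fluorescence intensity, in arbitrary units, on an Axon 4000B scanner.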
For “ACCCTCTCACCCTAGCTTAGTTTGCCACGACCTGGACCCACGGAGTCACCTAGTGCAG”, the binding signal is 3920 fluorescence intensity (a.u.).
As for “AGGGTTATAATTAGATGGGTAGTGGAGGTAGGTAAGAAAACGGAGTCACCTAGTGCAG”, the binding signal is 4130 fluorescence intensity (a.u.).
“GTGGTTCATGGACGATTTTGTAACTTGATGACAAGGAGGGCGGAGTCACCTAGTGCAG”: the binding signal was 4440 fluorescence intensity (a.u.).
For “TTATTCCCTCTCTACCCCAGCTACCCTATACCATCTCAAGCGGAGTCACCTAGTGCAG”, the binding signal is 3280 fluorescence intensity (a.u.).
To “CGTTGTGCTAGCATTTGCAGGTCCAGCACATCATCGTTGGCGGAGTCACCTAGTGCAG” belongs 6200 fluorescence intensity (a.u.); to “CCCAAGGTATCATTCGTCCATTTATTGATTTGTTTCTCTGCGGAGTCACCTAGTGCAG”, 4390 fluorescence intensity (a.u.).
Under “ACTCGGAGTCGTCTCCTCCCTCCGTCAGCGCTTCCATCTTCGGAGTCACCTAGTGCAG” stands 3970 fluorescence intensity (a.u.).
For the sequence “AACATATTAGAATATCGGTCTTAAATTAAATCCCATATAACGGAGTCACCTAGTGCAG”, the binding signal is 29100 fluorescence intensity (a.u.).
“CCTCGCCACCGCACGCGTCGCCCCGGCGCCGCTTCCCCTGCGGAGTCACCTAGTGCAG”: the binding signal is 3930 fluorescence intensity (a.u.).
Consider “GCAAAAGCATTGCTTCTCCCAACCGTTGCATGCATGCTCTCGGAGTCACCTAGTGCAG”, for which the binding signal is 3300 fluorescence intensity (a.u.).
As to “CAGTTCACCATTAGTCACCATCTAATTGTATCCTAGCAGGCGGAGTCACCTAGTGCAG”, the binding signal is 3300 fluorescence intensity (a.u.).
Under “CGACGGTGATGCACGAGCGCCCAGGCTCATGCAGCCAGTACGGAGTCACCTAGTGCAG” stands 3280 fluorescence intensity (a.u.); under “GAGAGAGCCCTGCATGATGCAGTCAAATTAATCACGCAGCCGGAGTCACCTAGTGCAG”, 3320 fluorescence intensity (a.u.).
“AACATTCCCGTGCATGCGTGATCTTCGGAGCATTTCTGTTCGGAGTCACCTAGTGCAG”: the binding signal is 36700 fluorescence intensity (a.u.).
For “AAAACAAATTAAACAGCAACTACATAATGTATTGTCATAGCGGAGTCACCTAGTGCAG”, the binding signal was 3540 fluorescence intensity (a.u.).
To “TCTACCGAACAAGCCTATTATGTTTAAAGATTTCTAGCTCCGGAGTCACCTAGTGCAG” belongs 28700 fluorescence intensity (a.u.); to “ACATATATATACTACGATGGTGCGTGTGACGCACGACACGCGGAGTCACCTAGTGCAG”, 3690 fluorescence intensity (a.u.); to “GGTAAACATTAAGATCGGCCTTGTCACGGGCCACCGGAACCGGAGTCACCTAGTGCAG”, 3360 fluorescence intensity (a.u.).
For “GAGCAGCCAGCTCGCCAAGCCTAGCCATTCTTGATCTCTTCGGAGTCACCTAGTGCAG”, the binding signal is 3280 fluorescence intensity (a.u.).
In the case of “TCTCTTACTACCTTCCACGCTTCCATCCCACGTCTTCTCCCGGAGTCACCTAGTGCAG”, the binding signal is 5140 fluorescence intensity (a.u.).
To “CAACATTTCTATGCCAGCTCACCCGTGACATGGCCCTCTCCGGAGTCACCTAGTGCAG” belongs 22300 fluorescence intensity (a.u.); to “TAATTAAAAGATTTGTCTCGTAATTTACACGCAATCTATGCGGAGTCACCTAGTGCAG”, 3460 fluorescence intensity (a.u.).
Turning to “GAAGAGGGGAAAGAGAGAGGGTGACGTGGACACCTGACATCGGAGTCACCTAGTGCAG”, the binding signal was 21700 fluorescence intensity (a.u.).
Under “CCCACCTTTCAAATTCCACGTCCGCCAATAATATTATTACCGGAGTCACCTAGTGCAG” stands 6710 fluorescence intensity (a.u.); under “CAGAGTGCGCCGCAACCGCCGCGCGCCGCCAGCTCCGCTACGGAGTCACCTAGTGCAG”, 3310 fluorescence intensity (a.u.); under “CGGCGGCCCTGACGACGAGGCCGCGTGACGGCCGCGGCGCCGGAGTCACCTAGTGCAG”, 5860 fluorescence intensity (a.u.).
As to “GATGAGCTGCGGCAACCACGTCGTCTTTGAGAGGAAGTGCCGGAGTCACCTAGTGCAG”, the binding signal was 3730 fluorescence intensity (a.u.).
Under “TACTTAATTGGGAAACGTGACACTTCATGGTCCGTGAAGGCGGAGTCACCTAGTGCAG” stands 3220 fluorescence intensity (a.u.).
For the sequence “GCGAGTCGAGTCGCTTCCACCCACCTCACCTCCCTTCCCCCGGAGTCACCTAGTGCAG”, the binding signal was 3560 fluorescence intensity (a.u.).
For “CAGTCCGCGCGCGCACCCGTTTCCTCCAACGACTGATCTGCGGAGTCACCTAGTGCAG”, the binding signal is 17700 fluorescence intensity (a.u.).
“CAATTATGACACTGCAAATATTAACCTTTACTATAATGACCGGAGTCACCTAGTGCAG”: the binding signal was 5000 fluorescence intensity (a.u.).
To “TGTGTGTTTTGTGCTGTACACCTGTACTACTACTGCTGTACGGAGTCACCTAGTGCAG” belongs 3170 fluorescence intensity (a.u.); to “ATGAGGGGTAGGAGGATGACATGTGGGGCCCACGTGGGTCCGGAGTCACCTAGTGCAG”, 6460 fluorescence intensity (a.u.); to “TTTTGTCTTTGGTGCCACGTCCCCATCATGTCATGTAAAACGGAGTCACCTAGTGCAG”, 23700 fluorescence intensity (a.u.).
In the case of “AAATTGTACTATTACTAAAGAATACATAGATATCTAAACACGGAGTCACCTAGTGCAG”, the binding signal was 3160 fluorescence intensity (a.u.).
Turning to “TTTGTAAGCCTTGCATATCTATTGAGTAATGCCTGAGTCGCGGAGTCACCTAGTGCAG”, the binding signal is 3780 fluorescence intensity (a.u.).
In the case of “ATTCCGATGGCTATATACGGTATTCCGCGTGCACACTAACCGGAGTCACCTAGTGCAG”, the binding signal is 3690 fluorescence intensity (a.u.).
To “TGTTAGGAGTAGGGATGTAAGTGGAGCGGGTAAGCGGGTTCGGAGTCACCTAGTGCAG” belongs 3370 fluorescence intensity (a.u.).
“CGAGCCCTCGCGCGCGTCGCATCGCATCACCGCCGCGCCGCGGAGTCACCTAGTGCAG”: the binding signal is 3780 fluorescence intensity (a.u.).
Regarding “TATCTTAATCGACGTGGTGTCCACGTTGCAAATTACTACACGGAGTCACCTAGTGCAG”, the binding signal is 9370 fluorescence intensity (a.u.).
Under “AGTAGTACTAGTACGTAATGCCATTGCACGGGACCATCTTCGGAGTCACCTAGTGCAG” stands 3150 fluorescence intensity (a.u.).
As for “AAAAGAAGAGAAAGAGGCGTCATCAACTTTAGTAGAATCTCGGAGTCACCTAGTGCAG”, the binding signal is 4790 fluorescence intensity (a.u.).
